{
  "source": "PubChem BioAssay AID651640",
  "about": "(Broad Institute, 2012)",
  "note": "About 6,000 (1.7%) of roughly 350,000 compounds were called active. Inconclusive means that the source gave no clear call. Such entries were picked first, then a sample of the others. Cut-off read from the data, not from the text of the source: active = CPE inhibition above about 20% (passing the limit was not always enough); inconclusive = no clear call, values can overlap the other calls; tested in BHK-21 cells.",
  "data": [
    {"test": "protection of cells from dengue 2 killing – plate reader, single concentration, primary screen (AID 651640);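 note: 0% = median of neutral control wells and 100% = median of positive control wells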", "conditions": "DENV2-infected cells, cytopathic effect rescue, at 9.99 µM, active compounds read high", "values": [
      {"compound": "COc1ccc(S(=O)(=O)N2CCCCN3[C@@H](CO)[C@H](c4ccc(C5=CCCC5)cc4)[C@@H]3C2)cc1", "CPE inhibition": "inactive: -33.4%"},
      {"compound": "O=C(/C=C/c1ccc([N+](=O)[O-])cc1)OCC(=O)N1c2ccccc2Sc2ccccc21", "CPE inhibition": "inconclusive: 72.3%"},
      {"compound": "C[C@H](CO)N1C[C@H](C)[C@@H](CN(C)S(=O)(=O)c2ccccc2)Oc2ccc(NC(=O)C3CCCCC3)cc2CC1=O", "CPE inhibition": "inactive: -9.58%"},
      {"compound": "COc1cc2[nH]c(=S)nc(NCCc3ccc(S(N)(=O)=O)cc3)c2cc1OC", "CPE inhibition": "inactive: -2.12%"},
      {"compound": "O=c1[nH]c2ccccc2cc1CN(Cc1cccnc1)S(=O)(=O)c1ccc([N+](=O)[O-])cc1", "CPE inhibition": "inactive: -0.315%"},
      {"compound": "CC(C)C[C@@H](CN)NC(=O)c1nc[nH]c1C(=O)N[C@@H](C)C(=O)CNC[C@H](CC(C)C)NC(=O)c1nc[nH]c1C(=O)N[C@@H](Cc1ccccc1)C(=O)O", "CPE inhibition": "inconclusive: 24.6%"},
      {"compound": "CC(=O)NC(c1cccc(F)c1)c1nc(-c2ccc(N(C)C)cc2)cs1", "note": "(centres undefined)", "CPE inhibition": "active: 26.4%"},
      {"compound": "Cc1cc(C)c(OCCN(C)Cc2ccccc2)c(Br)c1", "CPE inhibition": "inactive: -2.14%"},
      {"compound": "C[C@H](CO)N1C[C@H](C)[C@H](CN(C)C(=O)Nc2cccc3ccccc23)Oc2ccc(NC(=O)Nc3ccc4c(c3)OCO4)cc2CC1=O", "CPE inhibition": "inconclusive: 22.1%"},
      {"compound": "c1ccc(C2CC3CC(c4ccccc4)N2O3)cc1", "note": "(centres undefined)", "CPE inhibition": "inconclusive: 33.7%"},
      {"compound": "CS(=O)(=O)N1C[C@@H]2N[C@H](C1)[C@@H]2c1ccc(-c2ccccc2)cc1", "CPE inhibition": "active: 99.8%"},
      {"compound": "CN(C)CC#Cc1ccc([C@H]2[C@H](CO)N3C(=O)CN(C(=O)c4cccc(F)c4)C[C@@H]23)cc1", "CPE inhibition": "inactive: -0.827%"},
      {"compound": "O=C(Nc1ccccc1N1CCCC1)C1CCN(S(=O)(=O)c2ccc(F)cc2)CC1", "CPE inhibition": "inactive: 1.59%"},
      {"compound": "CC=Cc1ccc2n(c1=O)C[C@@H]1[C@@H](CO)[C@H](C(=O)NCCC)N(C(=O)C3CCOCC3)[C@H]21", "note": "(mixture of isomers)", "CPE inhibition": "inactive: -8.39%"},
      {"compound": "CN1C(=O)c2cc(NC(=O)C3CCC3)ccc2OC[C@H]2O[C@H](CC(=O)NCC3CCCCC3)CC[C@@H]21", "CPE inhibition": "inconclusive: 27.2%"},
      {"compound": "O=C(C[C@H]1C[C@H]2c3cc(NC(=O)Cc4ccncc4)ccc3O[C@H]2[C@H](CO)O1)NCc1cc(F)ccc1F", "CPE inhibition": "inactive: -2.39%"},
      {"compound": "C[C@@H]1CCCCO[C@@H](CN(C)C(=O)C2CCCCC2)[C@@H](C)CN([C@@H](C)CO)C(=O)c2cc(NC(=O)Cc3ccccc3)ccc2O1", "CPE inhibition": "inconclusive: 24.3%"},
      {"compound": "CCCCNC(=S)Nc1ccc2nc3n(c(=O)c2c1)CCCCC3", "CPE inhibition": "inconclusive: 50.9%"},
      {"compound": "CC(C)CC#Cc1ccc([C@H]2[C@@H](CO)N3CCCCN(C(=O)c4ccc5c(c4)OCO5)C[C@H]23)cc1", "CPE inhibition": "inactive: -6.67%"},
      {"compound": "CC(=O)N1CCc2ccc(NC(=O)c3c(-c4c(Cl)cccc4Cl)noc3C)cc21", "CPE inhibition": "inconclusive: 25.3%"},
      {"compound": "CNC[C@@H]1Oc2cc(Br)ccc2S(=O)(=O)N([C@@H](C)CO)C[C@H]1C", "CPE inhibition": "inconclusive: 35.5%"},
      {"compound": "C[C@@H]1CCCCO[C@@H](CN(C)S(=O)(=O)c2ccccc2)[C@H](C)CN([C@H](C)CO)C(=O)c2cc(N(C)C)ccc2O1", "CPE inhibition": "inconclusive: 96.8%"},
      {"compound": "O=C(NCC(c1cccs1)N1CCOCC1)C1CCN(S(=O)(=O)c2ccccc2C(F)(F)F)CC1", "note": "(centres undefined)", "CPE inhibition": "active: 61.5%"},
      {"compound": "C[C@@H]1CN([C@H](C)CO)C(=O)c2c(c3ccccc3n2C)-c2ccccc2CO[C@@H]1CN(C)C(=O)c1cc(Cl)cc(Cl)c1", "CPE inhibition": "active: 59.6%"},
      {"compound": "C/C=C/c1ccc([C@H]2[C@@H](CN(C)C(=O)CC3CC3)N(C(=O)C3CC3)[C@H]2CO)cc1", "CPE inhibition": "inconclusive: 47.5%"},
      {"compound": "COc1ccc2c(c1OC)C(=O)N(c1ccc(O)cc1)C2=O", "CPE inhibition": "inactive: 7.32%"},
      {"compound": "CCOc1ccccc1N(CC(=O)Nc1ccc(OC)cc1)S(=O)(=O)c1ccccc1", "CPE inhibition": "active: 27.9%"},
      {"compound": "COc1ccc(CC(=O)OCC(=O)c2ccc(OC)c(OC)c2)cc1", "CPE inhibition": "active: 29.8%"},
      {"compound": "CCCNC(=O)C1(C)CCN(C(=O)c2oc3ccccc3c2C)C1", "note": "(centres undefined)", "CPE inhibition": "inconclusive: 39.4%"},
      {"compound": "O=C(C[C@@H]1CC[C@H]2[C@@H](COC[C@@H](O)CN2C(=O)Nc2ccc(Cl)cc2)O1)NCc1ccncn1", "CPE inhibition": "inconclusive: 27.1%"},
      {"compound": "O=C(NCCc1c[nH]c2ccccc12)C1CCN(S(=O)(=O)c2ccc(F)cc2)CC1", "CPE inhibition": "inconclusive: 31.2%"},
      {"compound": "C[C@H](CO)N1C[C@H](C)[C@H](CN(C)C(=O)c2ccncc2)OCCCC[C@H](C)Oc2ccc(NS(=O)(=O)c3cn(C)cn3)cc2C1=O", "CPE inhibition": "active: 24.3%"},
      {"compound": "C[C@@H]1CN([C@@H](C)CO)C(=O)c2cc(C#Cc3cccnc3)cnc2O[C@@H]1CN(C)Cc1ccc(F)cc1", "CPE inhibition": "inconclusive: 22.3%"},
      {"compound": "CN(Cc1ccccc1)c1ccc(C(CC(N)=O)NC(=O)Cc2ccc(Br)cc2)cc1[N+](=O)[O-]", "note": "(centres undefined)", "CPE inhibition": "active: 136%"},
      {"compound": "CC(C)NC(=O)N[C@H]1CC[C@@H](CCNC(=O)C2CCOCC2)O[C@H]1CO", "CPE inhibition": "inactive: 6.56%"},
      {"compound": "Cn1c(SCc2cccc(F)c2)nnc1-c1ccncc1", "CPE inhibition": "inactive: 1.69%"},
      {"compound": "O=C(C[C@H]1CC[C@@H]2[C@H](COC[C@@H](O)CN2Cc2ccncc2)O1)NCC1CC1", "CPE inhibition": "inactive: -5.38%"},
      {"compound": "CO[C@H](C(=O)N(C)C[C@@H]1OCc2ccccc2-c2c(n(C)c3ccccc23)C(=O)N([C@H](C)CO)C[C@@H]1C)c1ccccc1", "CPE inhibition": "inconclusive: 30.1%"},
      {"compound": "CCOC(=O)c1c(CSc2ccc(CC)cc2)oc2ccc(O)c(CN(C)C)c12", "CPE inhibition": "inactive: -7.22%"},
      {"compound": "CCN(CC)S(=O)(=O)c1ccc(NC(=O)COC(=O)c2ccc(-n3nc(C)cc3C)cc2)cc1", "CPE inhibition": "inconclusive: 24.4%"},
      {"compound": "CCc1ccc(N2CC(C(=O)N/N=C/c3ccccc3OC)CC2=O)cc1", "note": "(centres undefined)", "CPE inhibition": "inconclusive: 27.5%"},
      {"compound": "C[C@@H]1CN([C@@H](C)CO)C(=O)Cc2cc(NS(=O)(=O)c3ccccc3)ccc2O[C@@H]1CN(C)Cc1ccc(Oc2ccccc2)cc1", "CPE inhibition": "active: 25%"},
      {"compound": "O=C(Cn1nnc(-c2ccc(F)cc2)n1)Nc1ccc2c(c1)OCCO2", "CPE inhibition": "inconclusive: 34.3%"},
      {"compound": "O=C(COC(=O)c1c(Cl)cccc1Cl)NCc1cccs1", "CPE inhibition": "inconclusive: 52%"}
    ]}
  ]
}
